These are yes or no findings as the source states them, for the method shown. Some entries that bind do so weakly or less than the wild type. Tags and fused reporters may be left off the sequences shown.
T1: KAKU4 N-terminus (1-310), yeast two-hybrid fusion (Arabidopsis thaliana) (UniProt Q949W6)
T1 sequence: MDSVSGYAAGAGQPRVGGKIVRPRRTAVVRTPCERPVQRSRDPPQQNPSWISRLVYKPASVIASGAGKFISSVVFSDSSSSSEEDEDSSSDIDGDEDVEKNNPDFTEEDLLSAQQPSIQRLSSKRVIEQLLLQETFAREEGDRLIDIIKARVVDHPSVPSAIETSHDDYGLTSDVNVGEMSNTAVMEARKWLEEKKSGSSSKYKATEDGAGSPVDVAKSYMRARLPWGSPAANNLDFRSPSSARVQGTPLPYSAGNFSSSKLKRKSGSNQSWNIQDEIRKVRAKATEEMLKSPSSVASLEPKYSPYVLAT

T2: CROWDED NUCLEI 2 (CRWN2), yeast two-hybrid fusion (Arabidopsis thaliana) (UniProt Q9SAF6)
T2 sequence: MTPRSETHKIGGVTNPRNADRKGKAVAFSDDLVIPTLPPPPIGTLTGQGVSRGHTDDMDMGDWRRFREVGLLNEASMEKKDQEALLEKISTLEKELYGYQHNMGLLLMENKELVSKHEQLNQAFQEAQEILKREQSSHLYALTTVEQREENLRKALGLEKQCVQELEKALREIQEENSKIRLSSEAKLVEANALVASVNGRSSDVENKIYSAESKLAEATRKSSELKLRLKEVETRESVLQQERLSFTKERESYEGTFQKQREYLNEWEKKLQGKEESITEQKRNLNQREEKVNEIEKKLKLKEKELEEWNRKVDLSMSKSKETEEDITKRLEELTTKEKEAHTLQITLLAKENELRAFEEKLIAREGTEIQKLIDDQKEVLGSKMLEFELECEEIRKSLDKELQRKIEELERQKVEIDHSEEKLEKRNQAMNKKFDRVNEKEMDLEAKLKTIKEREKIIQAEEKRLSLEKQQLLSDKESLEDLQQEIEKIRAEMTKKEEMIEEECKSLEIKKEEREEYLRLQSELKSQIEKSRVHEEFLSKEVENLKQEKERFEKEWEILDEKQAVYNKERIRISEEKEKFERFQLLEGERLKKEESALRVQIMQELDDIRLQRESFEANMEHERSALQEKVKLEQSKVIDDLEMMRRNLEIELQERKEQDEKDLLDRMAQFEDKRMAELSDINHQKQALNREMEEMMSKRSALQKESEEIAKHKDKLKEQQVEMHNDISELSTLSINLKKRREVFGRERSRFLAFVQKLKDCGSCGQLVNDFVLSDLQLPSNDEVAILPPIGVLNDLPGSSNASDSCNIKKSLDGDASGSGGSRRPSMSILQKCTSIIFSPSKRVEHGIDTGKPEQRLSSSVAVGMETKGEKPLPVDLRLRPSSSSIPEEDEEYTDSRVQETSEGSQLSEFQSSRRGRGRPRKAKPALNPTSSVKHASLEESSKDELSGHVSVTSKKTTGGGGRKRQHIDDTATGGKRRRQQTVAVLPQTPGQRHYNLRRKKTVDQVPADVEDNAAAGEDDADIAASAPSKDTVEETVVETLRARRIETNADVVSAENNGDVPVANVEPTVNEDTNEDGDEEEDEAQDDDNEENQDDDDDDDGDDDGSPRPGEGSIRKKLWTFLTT

T3: CROWDED NUCLEI 3 (CRWN3), yeast two-hybrid fusion (Arabidopsis thaliana) (UniProt Q9CA42)
T3 sequence: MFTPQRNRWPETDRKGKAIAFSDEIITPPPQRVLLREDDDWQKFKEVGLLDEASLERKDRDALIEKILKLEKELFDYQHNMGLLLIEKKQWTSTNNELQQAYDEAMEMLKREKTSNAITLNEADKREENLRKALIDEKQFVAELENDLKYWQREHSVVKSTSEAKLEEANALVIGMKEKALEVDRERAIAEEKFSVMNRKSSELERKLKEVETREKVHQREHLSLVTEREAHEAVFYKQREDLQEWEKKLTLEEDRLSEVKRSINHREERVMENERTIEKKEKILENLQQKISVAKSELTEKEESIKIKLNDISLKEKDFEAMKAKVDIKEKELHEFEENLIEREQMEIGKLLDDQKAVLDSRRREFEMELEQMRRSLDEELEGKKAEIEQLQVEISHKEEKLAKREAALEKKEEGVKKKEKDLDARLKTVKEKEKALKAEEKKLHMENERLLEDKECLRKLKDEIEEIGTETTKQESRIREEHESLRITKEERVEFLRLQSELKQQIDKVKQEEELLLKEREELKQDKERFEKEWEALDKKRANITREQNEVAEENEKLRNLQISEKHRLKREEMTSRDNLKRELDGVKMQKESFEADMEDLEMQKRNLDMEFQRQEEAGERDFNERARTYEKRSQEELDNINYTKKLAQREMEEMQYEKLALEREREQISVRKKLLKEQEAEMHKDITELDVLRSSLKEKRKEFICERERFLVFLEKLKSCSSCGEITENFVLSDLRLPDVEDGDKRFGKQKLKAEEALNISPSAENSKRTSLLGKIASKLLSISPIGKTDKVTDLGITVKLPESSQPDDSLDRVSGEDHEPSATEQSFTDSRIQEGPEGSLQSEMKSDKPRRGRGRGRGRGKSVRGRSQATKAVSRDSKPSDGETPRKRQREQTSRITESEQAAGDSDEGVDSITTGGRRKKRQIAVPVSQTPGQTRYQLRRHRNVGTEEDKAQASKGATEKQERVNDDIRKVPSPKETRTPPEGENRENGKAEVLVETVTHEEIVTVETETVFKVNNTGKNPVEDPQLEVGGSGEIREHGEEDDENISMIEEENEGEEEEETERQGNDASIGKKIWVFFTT

T4: CROWDED NUCLEI 1 (CRWN1), yeast two-hybrid fusion (Arabidopsis thaliana) (UniProt F4HRT5)
T4 sequence: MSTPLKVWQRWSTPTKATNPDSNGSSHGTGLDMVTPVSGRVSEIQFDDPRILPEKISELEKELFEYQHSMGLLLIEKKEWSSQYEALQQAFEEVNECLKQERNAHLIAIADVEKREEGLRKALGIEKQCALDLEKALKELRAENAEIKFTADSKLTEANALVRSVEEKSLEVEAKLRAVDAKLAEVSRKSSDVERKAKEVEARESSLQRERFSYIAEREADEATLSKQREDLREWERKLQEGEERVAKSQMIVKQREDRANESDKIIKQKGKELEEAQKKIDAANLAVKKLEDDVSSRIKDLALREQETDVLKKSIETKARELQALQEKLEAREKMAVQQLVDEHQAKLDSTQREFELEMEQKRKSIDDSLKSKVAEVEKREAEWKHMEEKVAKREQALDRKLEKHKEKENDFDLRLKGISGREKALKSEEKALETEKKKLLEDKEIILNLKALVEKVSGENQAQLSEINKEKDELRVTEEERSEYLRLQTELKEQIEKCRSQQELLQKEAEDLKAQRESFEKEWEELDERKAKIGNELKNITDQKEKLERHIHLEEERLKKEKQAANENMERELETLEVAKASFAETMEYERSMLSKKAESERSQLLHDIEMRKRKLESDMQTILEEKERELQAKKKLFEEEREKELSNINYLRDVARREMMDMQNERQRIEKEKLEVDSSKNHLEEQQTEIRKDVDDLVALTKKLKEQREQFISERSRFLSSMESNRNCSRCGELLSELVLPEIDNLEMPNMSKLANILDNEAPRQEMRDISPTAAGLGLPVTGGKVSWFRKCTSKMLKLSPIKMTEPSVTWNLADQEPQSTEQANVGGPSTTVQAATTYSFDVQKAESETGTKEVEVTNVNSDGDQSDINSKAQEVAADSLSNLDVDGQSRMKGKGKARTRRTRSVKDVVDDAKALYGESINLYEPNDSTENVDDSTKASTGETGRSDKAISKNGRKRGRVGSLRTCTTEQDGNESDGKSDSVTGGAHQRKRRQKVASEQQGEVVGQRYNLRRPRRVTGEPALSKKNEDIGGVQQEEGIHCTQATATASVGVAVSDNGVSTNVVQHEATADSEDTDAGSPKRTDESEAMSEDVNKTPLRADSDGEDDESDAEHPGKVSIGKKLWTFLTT


Columns and labels:
Test in all cases: two-hybrid
[1] = biological target: T1, KAKU4 N-terminus (1-310), yeast two-hybrid fusion (Arabidopsis thaliana)
[2] = biological target: T2, CROWDED NUCLEI 2 (CRWN2), yeast two-hybrid fusion (Arabidopsis thaliana)
[3] = biological target: T3, CROWDED NUCLEI 3 (CRWN3), yeast two-hybrid fusion (Arabidopsis thaliana)
[4] = biological target: T4, CROWDED NUCLEI 1 (CRWN1), yeast two-hybrid fusion (Arabidopsis thaliana)

Binder | binding [1] | binding [2] | binding [3] | binding [4]
SKRVIEQLLLQETFAREEGDRLIDIIKARVVDH (domain or fragment, UniProt Q949W6-2 123-155) [KAKU4 M1 motif alone, yeast two-hybrid fusion] | binds |  |  | 
GAGSPVDVAKSYMRARLPWGSPAANNLDF (domain or fragment, UniProt Q949W6-2 209-237) [KAKU4 M2 motif alone, yeast two-hybrid fusion] |  | binds | binds | binds
KAKU4 protein deleted of M1, yeast two-hybrid fusion (protein, UniProt Q949W6-2) MDSVSGYAAGAGQPRVGGKIVRPRRTAVVRTPCERPVQRSRDPPQQNPSWISRLVYKPASVIASGAGKFISSVVFSDSSSSSEEDEDSSSDIDGDEDVEKNNPDFTEEDLLSAQQPSIQRLSPSVPSAIETSHDDYGLTSDVNVGEMSNTAVMEARKWLEEKKSGSSSKYKATEDGAGSPVDVAKSYMRARLPWGSPAANNLDFRSPSSARVQGTPLPYSAGNFSSSKLKRKSGSNQSWNIQDEIRKVRAKATEEMLKSPSSVASLEPKYSPYVLATDMLKGNASSLNADGAVRNEQSRALPNSAIPTSEHNQTTEANQAVKETGVLHTRSRGVGLEETFISTQGVKPSEDTNTAPQSGTAVDDFNDQDGDFIQPTSTIGNTTNAVLALGATLDPTGNSCIPKDVFETSKEADEIGASRHTSNGFPSSSPSSPAVMEGQPKPTPPEETKASQPIAEIHGDDMTVGNGSDGAINNESNDSHSSASNSSSTHEEEWLPGDQSLPNSNSASSSPGNTKVLAYSRRGRGRGRGRGRGGRGKGRAK | no binding |  |  | 

Source: paper doi:10.1101/2021.03.20.435662
